The M2OR odorant receptor database
This is a selection; strong and weak results do not stand in their true shares. Calls are pooled over several reports, among them a noisy single-well screen. The list shows a part of the results.

Tests used:
Conditions in all cases: stereoisomer not certain
OR51I1 (Homo sapiens) = target: T1, OR51I1 (Homo sapiens) (UniProt Q9H343)
T1 sequence (whole entry): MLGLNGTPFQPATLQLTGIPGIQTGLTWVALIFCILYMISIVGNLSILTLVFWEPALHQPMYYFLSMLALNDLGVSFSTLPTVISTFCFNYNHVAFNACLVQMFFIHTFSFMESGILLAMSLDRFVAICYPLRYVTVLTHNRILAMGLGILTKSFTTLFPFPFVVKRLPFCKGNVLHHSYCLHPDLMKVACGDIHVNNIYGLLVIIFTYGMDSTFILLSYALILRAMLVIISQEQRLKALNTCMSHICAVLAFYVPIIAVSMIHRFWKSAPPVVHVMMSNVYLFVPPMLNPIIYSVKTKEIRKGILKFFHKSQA
Method in brief: (§1)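 Each entry records the cell line, G-protein, co-transfected protein and tags used. Methods varied with the source, often transient luciferase assays in mammalian cell lines. A receptor–molecule pair is called responsive (active) if the original authors judged its signal statistically different from baseline and non-responsive (inactive) otherwise.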

OR51I2 (Homo sapiens) = target: T2, OR51I2 (Homo sapiens) (UniProt Q9H344)
T2 sequence (whole entry): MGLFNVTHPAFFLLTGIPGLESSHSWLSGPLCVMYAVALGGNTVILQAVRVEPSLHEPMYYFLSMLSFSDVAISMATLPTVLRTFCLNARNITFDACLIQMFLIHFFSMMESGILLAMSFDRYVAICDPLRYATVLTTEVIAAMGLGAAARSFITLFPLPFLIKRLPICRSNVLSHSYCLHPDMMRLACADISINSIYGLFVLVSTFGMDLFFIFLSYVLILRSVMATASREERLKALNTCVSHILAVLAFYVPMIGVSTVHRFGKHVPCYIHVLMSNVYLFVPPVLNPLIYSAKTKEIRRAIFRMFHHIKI
Method in brief: as §1

OR51L1 (Homo sapiens) = target: T3, OR51L1 (Homo sapiens) (UniProt Q8NGJ5)
T3 sequence (whole entry): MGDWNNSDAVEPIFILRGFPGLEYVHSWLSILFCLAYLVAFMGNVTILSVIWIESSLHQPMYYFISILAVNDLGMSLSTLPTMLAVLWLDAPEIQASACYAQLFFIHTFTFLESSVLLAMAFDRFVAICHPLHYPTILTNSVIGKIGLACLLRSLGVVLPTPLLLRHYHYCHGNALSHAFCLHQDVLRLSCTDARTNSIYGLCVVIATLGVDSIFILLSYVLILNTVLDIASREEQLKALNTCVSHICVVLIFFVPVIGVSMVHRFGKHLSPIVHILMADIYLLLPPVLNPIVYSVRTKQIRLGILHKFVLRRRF
Method in brief: as §1

OR51S1 (Homo sapiens) = target: T4, OR51S1 (Homo sapiens) (UniProt Q8NGJ8)
T4 sequence (whole entry): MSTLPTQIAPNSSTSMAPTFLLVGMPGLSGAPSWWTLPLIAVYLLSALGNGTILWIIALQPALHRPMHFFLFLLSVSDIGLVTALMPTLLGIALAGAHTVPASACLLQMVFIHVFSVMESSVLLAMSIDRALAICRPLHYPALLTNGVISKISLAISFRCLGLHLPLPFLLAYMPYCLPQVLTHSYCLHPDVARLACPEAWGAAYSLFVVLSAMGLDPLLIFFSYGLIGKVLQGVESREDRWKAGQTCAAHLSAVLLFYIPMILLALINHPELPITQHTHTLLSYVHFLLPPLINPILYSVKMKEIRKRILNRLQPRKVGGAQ
Method in brief: as §1

OR52A4P (Homo sapiens) = target: T5, OR52A4P (Homo sapiens) (UniProt A6NMU1)
T5 sequence (whole entry): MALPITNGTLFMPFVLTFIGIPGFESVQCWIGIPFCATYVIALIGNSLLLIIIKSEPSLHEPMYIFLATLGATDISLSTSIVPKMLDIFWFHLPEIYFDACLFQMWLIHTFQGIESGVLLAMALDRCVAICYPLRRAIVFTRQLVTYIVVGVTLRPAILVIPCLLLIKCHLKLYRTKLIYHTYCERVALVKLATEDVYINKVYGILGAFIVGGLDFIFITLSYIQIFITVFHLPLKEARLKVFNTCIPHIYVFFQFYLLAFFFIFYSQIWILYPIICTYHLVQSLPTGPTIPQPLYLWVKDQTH
Method in brief: as §1

OR52A5 (Homo sapiens) = target: T6, OR52A5 (Homo sapiens) (UniProt Q9H2C5)
T6 sequence (whole entry): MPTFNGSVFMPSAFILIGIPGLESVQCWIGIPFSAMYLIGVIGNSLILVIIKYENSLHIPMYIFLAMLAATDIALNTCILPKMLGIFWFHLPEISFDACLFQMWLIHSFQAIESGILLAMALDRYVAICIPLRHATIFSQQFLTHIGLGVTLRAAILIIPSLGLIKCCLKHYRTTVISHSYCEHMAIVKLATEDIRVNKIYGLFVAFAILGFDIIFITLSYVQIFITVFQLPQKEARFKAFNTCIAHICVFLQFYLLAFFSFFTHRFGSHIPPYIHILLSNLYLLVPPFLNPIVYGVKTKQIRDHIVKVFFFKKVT
Method in brief: as §1

OR52B4 (Homo sapiens) = target: T7, OR52B4 (Homo sapiens) (UniProt Q8NGK2)
T7 sequence (whole entry): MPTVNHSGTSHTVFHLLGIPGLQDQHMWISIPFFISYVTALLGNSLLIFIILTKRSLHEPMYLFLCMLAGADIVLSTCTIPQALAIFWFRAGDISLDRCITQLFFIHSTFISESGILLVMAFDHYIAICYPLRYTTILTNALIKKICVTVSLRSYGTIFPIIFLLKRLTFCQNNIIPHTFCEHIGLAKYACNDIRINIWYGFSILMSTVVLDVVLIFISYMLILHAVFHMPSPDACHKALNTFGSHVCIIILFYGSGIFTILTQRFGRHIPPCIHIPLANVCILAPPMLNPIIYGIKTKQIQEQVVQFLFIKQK
Method in brief: as §1

OR52D1 (Homo sapiens) = target: T8, OR52D1 (Homo sapiens) (UniProt Q9H346)
T8 sequence (whole entry): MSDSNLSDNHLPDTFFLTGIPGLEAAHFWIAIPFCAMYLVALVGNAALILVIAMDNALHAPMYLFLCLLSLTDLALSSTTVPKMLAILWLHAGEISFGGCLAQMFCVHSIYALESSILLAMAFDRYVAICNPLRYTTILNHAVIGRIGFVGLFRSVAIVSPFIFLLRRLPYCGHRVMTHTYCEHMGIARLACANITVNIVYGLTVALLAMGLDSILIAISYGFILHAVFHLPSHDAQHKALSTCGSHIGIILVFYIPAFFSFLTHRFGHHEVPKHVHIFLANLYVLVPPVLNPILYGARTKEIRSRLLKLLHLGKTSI
Method in brief: as §1

Measured: odorant receptor agonist call

CCCCCCCCCCC=O
inactive: OR51I2 (Homo sapiens) | OR51L1 (Homo sapiens) | OR51S1 (Homo sapiens) | OR52A4P (Homo sapiens) | OR52A5 (Homo sapiens) | OR52B4 (Homo sapiens) | OR52D1 (Homo sapiens)
active: OR51I1 (Homo sapiens)

CC12CCC(CC1)C(C)(C)O2
inactive: OR51I1 (Homo sapiens) | OR51I2 (Homo sapiens) | OR51L1 (Homo sapiens) | OR51S1 (Homo sapiens) | OR52A4P (Homo sapiens) | OR52A5 (Homo sapiens) | OR52B4 (Homo sapiens) | OR52D1 (Homo sapiens)

CCCCCCCCOC(C)=O
inactive: OR51I1 (Homo sapiens) | OR51I2 (Homo sapiens) | OR51L1 (Homo sapiens) | OR51S1 (Homo sapiens) | OR52A4P (Homo sapiens) | OR52A5 (Homo sapiens) | OR52B4 (Homo sapiens) | OR52D1 (Homo sapiens)

CC(C)CCC(=O)O
active: OR51L1 (Homo sapiens)
inactive: OR51I1 (Homo sapiens) | OR51I2 (Homo sapiens) | OR51S1 (Homo sapiens) | OR52A4P (Homo sapiens) | OR52A5 (Homo sapiens) | OR52B4 (Homo sapiens) | OR52D1 (Homo sapiens)

CCCCCOC(C)=O
active: OR51I1 (Homo sapiens)
inactive: OR51I2 (Homo sapiens) | OR51L1 (Homo sapiens) | OR51S1 (Homo sapiens) | OR52A4P (Homo sapiens) | OR52A5 (Homo sapiens) | OR52B4 (Homo sapiens) | OR52D1 (Homo sapiens)

CC(C)C=O
inactive: OR51I1 (Homo sapiens) | OR51I2 (Homo sapiens) | OR51L1 (Homo sapiens) | OR51S1 (Homo sapiens) | OR52A4P (Homo sapiens) | OR52A5 (Homo sapiens) | OR52B4 (Homo sapiens) | OR52D1 (Homo sapiens)
